Experimental data as given in PubChem BioAssay AID504834 (National Center for Advancing Translational Sciences (NCATS), 2011).
“And” between values parts separate entries of the source, which are not always exact repeats. Equal entries are not always repeated. Hit rate of the full screen: of about 320,000 compounds, about 22,000 (6.9%) were called active. The inconclusive results got no clear call from the source; some entries with a clear call stand among them for comparison. Calls come from the whole dose curve; as a rule, active = well fitted inhibition curve with a large enough effect; inconclusive = small, poorly fitted or top-dose-only effect, or another doubt; inactive = no such curve, though single readings can be large or run the other way. Potencies of inconclusive entries are doubtful fits and often do not repeat. The source holds several records for some structures; these can differ, active in one and inactive in another.

experiment: Primary qHTS for delayed death inhibitors of the malarial parasite plastid, 96 hour incubation; details: P. falciparum luciferase reporter growth; series mostly up to 28.7 µM
Summary of the method: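 96 h incubation, 37 C, 5% CO2, of luciferase-reporter P. falciparum-infected RBCs (2% hematocrit, 0.05% parasitemia final) with test compounds; endpoint luminescence.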
Potency is the fitted concentration of half-maximal effect.

Compound	Potency
CNC(=O)/C(C#N)=C/c1c(N2CC(C)OC(C)C2)nc2ccccn2c1=O (configuration not stated)	inconclusive: 18.5 µM [inhibitor, single point]
COc1ccc2c(c1)c1nc3n(c(=O)c1n2CC(=O)Nc1ccccc1)CCCS3	inactive
C#CCOCCOCCOCCNc1nc(N2CCN(C(=O)CCCCCCCCCCNC(=O)[C@H](CCCCN)n3cc(C)nn3)CC2)nc(N2CCN(C(=O)CCCCCCCCCCNC(=O)[C@H](CCCCN)n3cc(CCCC(=O)O)nn3)CC2)n1	inconclusive: 13.1 µM [inhibitor, partial curve, poor fit]
CC(C)/C=N/NC(=O)c1ccc(Cl)cc1	inactive
Cc1cccc(C(=O)NCC(=O)N2CCN(S(=O)(=O)c3cc(C)ccc3C)CC2)c1	inconclusive: 18.5 µM [inhibitor, single point]
Cc1oc(-c2ccccc2F)nc1CS(=O)(=O)CC(=O)NC1CCCC(C)C1C (configuration not stated)	inactive
CC(C)c1ccc(Nc2nc(NCc3ccco3)nc(N3CCOCC3)n2)cc1	inactive
CN1C(=O)C(O)(CC(=O)c2ccncc2)c2ccccc21 (configuration not stated)	inconclusive: 18.5 µM [inhibitor, single point]
Cc1ccc(S(=O)(=O)Nc2ccc(Oc3cccnc3)nc2)cc1	inactive
CC1CC1C(=O)OCC(=O)c1c(N)n(C)c(=O)n(C)c1=O (configuration not stated)	inconclusive: 4.15 µM [inhibitor, single point]
CC(C)(C)C(Cn1ccnc1)NC(=O)c1ccc2nc(C3CC3)oc2c1 (configuration not stated)	inconclusive: 10.4 µM [inhibitor, single point]
Cc1[nH]c2ccccc2c1/C=C/c1nc2ccccc2c(=O)n1-c1ccc([N+](=O)[O-])cc1	inconclusive: 18.5 µM [inhibitor, single point]
CN(C)C(=O)COc1ncnc2scc(-c3ccc(F)cc3)c12	inactive
Cc1ccc(/C=C/C(=O)N2CCN(Cc3ccccc3)CC2)o1	inactive
O=C(c1cnn2c(C(F)(F)F)cc(-c3ccco3)nc12)N1CCc2ccccc2C1	inactive
COc1ccc(NC(C)=O)cc1S(=O)(=O)Nc1ccccc1C(=O)NCCc1ccccc1	inactive
O=C(N/N=C/C(Br)=C/c1ccccc1)c1cccs1	inactive
O=C(Nc1nc(=O)n(C(=O)C2CC2)s1)c1ccccc1	inactive
CCc1ccc(OCC(=O)Nc2ncc3c(n2)CC(C)(C)CC3=O)cc1	active: 3.29 µM
Cc1cc(C)cc(N(CCC#N)C(=O)CSc2ncnc3sccc23)c1	inconclusive: 13.1 µM [inhibitor, partial curve, poor fit]
Cc1cccc(C)c1N1CCN(c2c(C)cccc2C)CC1	inconclusive: 0.0738 µM [inhibitor, full curve, poor fit]
COC(=O)CC1COc2ccccc2N1S(=O)(=O)c1ccc(Br)cc1 (configuration not stated)	inconclusive: 9.28 µM [inhibitor, single point]
c1ccc(Cc2ccc(OCCN3CCOCC3)cc2)cc1	inactive
Cc1cc(NC(=O)c2cc3n(n2)C(C(F)(F)F)CC(c2ccco2)N3)no1 (configuration not stated)	active: 10.4 µM

Compound	Potency
CCCOc1ccc(C(=O)CCC(=O)Nc2ccc(N3CCN(C)CC3)cc2)cc1	inconclusive: 10.4 µM [inhibitor, single point]
CCOc1ccccc1CN1CCC(Oc2cccc(C(=O)NCCOC)c2)CC1	inactive
CCOc1ccc(NC(=O)C2CCN(C(=O)NCc3ccccc3)CC2)cc1	inconclusive: 13.1 µM [inhibitor, single point]
CCOc1ccccc1/C=N/n1nnnc1N	inactive
C/C(=N/Nc1nc(C)c(C)s1)c1cccc([N+](=O)[O-])c1	inconclusive: 13.1 µM [inhibitor, single point]
CC(C)(C)n1cnnc1Sc1ccc([N+](=O)[O-])cn1	active: 1.65 µM
CNc1cc(C)nc(-n2nc(C)cc2C)n1	active: 4.65 µM
CCC(C)[C@@H](C(=O)NCC1CCC(C(=O)O)CC1)n1nnc2ccccc2c1=O (some centres not stated)	inconclusive: 20.8 µM [inhibitor, partial curve, poor fit]
Cc1cc(NC(=O)Cc2ccccc2C)no1	inactive
COc1nc(-c2ccc(Cl)cc2Cl)nc2ccccc12	inconclusive: 18.5 µM [inhibitor, single point]
Cc1nc2ccccc2c2oc(C(=O)N3CCc4ccccc43)cc12	inconclusive: 11.7 µM [inhibitor, single point]
O=[N+]([O-])c1cccc(/C=N/Nc2ccccn2)c1	inconclusive: 11.7 µM [inhibitor, single point]
COCCCNC(=O)/C(C#N)=C/c1cc(C)[nH]c1C	inactive
CC1CCN(CC(=O)N2c3ccccc3CC2C)CC1 (configuration not stated)	active: 0.586 µM
O=S(=O)(/C=C/c1ccccc1)NCc1ccccc1Cl	inactive
Cn1cc(S(=O)(=O)NCc2ccco2)c(=O)n(C)c1=O	inactive
CCOC(=O)c1ccc(NC(=O)c2cnccn2)cc1	inconclusive: 18.5 µM [inhibitor, single point]
C[N+](C)(C)CC(=O)N/N=C/c1c2ccccc2cc2ccccc12	active: 6.57 µM
Cc1cc(C)n2nc(SCc3cccc(F)c3)nc2n1	inconclusive: 2.62 µM [inhibitor, full curve]
Cc1cc(-c2ccccc2)nc(N/N=C/c2ccc(O)cc2O)n1	inactive
Cc1ccc(-c2nc3ccccc3[nH]2)cc1NC(=O)c1ccc2c(c1)OCO2	inconclusive: 2.94 µM [inhibitor, partial curve, poor fit]
CCN(CC)C(=O)Oc1ccnc2cc(Cl)ccc12	inactive
O=C(Nc1cccc(NC(=O)c2ccco2)c1)c1ccc([N+](=O)[O-])cc1	inconclusive: 18.5 µM [inhibitor, partial curve, poor fit]
CCCCNC(=O)C(c1ccc(OCC(=O)OC)c(C(=O)OC)c1)N(CCc1c[nH]c2ccccc12)C(=O)CCCCCN1C(=O)NC(c2ccc(-c3ccccc3)cc2)C(C(=O)OCc2ccccc2)=C1C (configuration not stated)	active: 2.94 µM

Compound	Potency
O=C(c1ccccc1)c1ccc(C(=O)N2CCOCC2)cc1	inactive
Cn1ncc2c(NNC(=O)c3ccc(Cl)c(Cl)c3)ncnc21	inconclusive: 10.4 µM [inhibitor, partial curve, poor fit]
CC(C)c1ccc(CN2C(=O)NC3(CCCCCC3)C2=O)cc1	inconclusive: 11.7 µM [inhibitor, single point]
COc1ccc(/C=C(\NC(=O)c2ccco2)C(=O)Nc2ccc(C(C)=O)cc2)cc1	inconclusive: 11.7 µM [inhibitor, partial curve, poor fit]
COc1ccc(/C=C(\NC(=O)c2ccccc2)C(=O)NCc2ccco2)cc1OC	inactive
COc1ccc(CN2C(=O)c3ccccc3C(/C=N/OCc3ccc(Cl)cc3)C2=O)cc1 (configuration not stated)	inconclusive: 1.04 µM [inhibitor, partial curve, poor fit]
C#CCOc1ccc(/C=C2/C(=O)NN(c3ccc(F)cc3)C2=O)cc1OC	inconclusive: 4.15 µM [inhibitor, single point]
O=C(NCc1cc(F)ccc1F)C1CCC(=O)N(C2CCCCCC2)C1 (configuration not stated)	inactive
Cc1ccc(CCN2CC(C(=O)N3CCC4(CC3)OCCO4)CC2=O)cc1 (configuration not stated)	inconclusive: 10.4 µM [inhibitor, single point]
Cc1ccc(-c2nn(-c3ccccc3)cc2/C=N/n2c(-c3cccs3)n[nH]c2=S)cc1	inconclusive: 10.4 µM [inhibitor, partial curve]
Cc1nnc(NC(=O)C2CCN(S(=O)(=O)c3ccc(Cl)cc3)CC2)s1	inactive
Cc1ccc(-c2n[nH]c(=S)n2/N=C/c2c(C)nn(-c3ccccc3)c2C)cc1	inconclusive: 3.29 µM [inhibitor, partial curve]
O=C(COC(=O)c1ccc(O)cc1)Nc1cc(C(F)(F)F)ccc1N1CCOCC1	inactive
C/C=C\C=C/C(=O)Nc1cccc(C2=NOC3(C2)C[C@@H](C(N)=O)N(C(=O)c2ccccc2)C3)c1 (some centres not stated)	inconclusive: 14.7 µM [inhibitor, single point]
Cc1cc(NC(=O)c2ccc(F)cc2)ccc1NC(=O)c1ccco1	inactive
Cc1nn(Cc2ccc(Cl)cc2Cl)c(Cl)c1/C=N/NC(=O)CNc1cccc(C(F)(F)F)c1	inconclusive: 8.28 µM [inhibitor, partial curve]
Cc1cccc2cc(CN(CCN(C)C)C(=S)NCc3ccco3)c(=O)[nH]c12	inconclusive: 18.5 µM [inhibitor, single point]
CC1CCc2cc(F)ccc2N1C(=O)CSc1nnc2c(n1)[nH]c1ccc(F)cc12 (configuration not stated)	inconclusive: 13.1 µM [inhibitor, partial curve]
COc1ccc(C(Cl)=C(c2ccc(OC)cc2)c2ccc(OC)cc2)cc1	inconclusive: 19 µM [inhibitor, single point] and inconclusive: 4.1 nM [inhibitor, full curve, poor fit]
CCc1ccccc1NC(=O)Cn1nc(C)n2cccc2c1=O	inconclusive: 10.4 µM [inhibitor, single point]
O=C(CN1C(=O)C2CCCCC2C1=O)N1CCN(c2ccccc2)CC1 (configuration not stated)	inconclusive: 18.5 µM [inhibitor, single point]
Cc1oncc1C(=O)Nc1ccc(C(F)(F)F)cc1	inactive and active: 4.55 µM
O=c1[nH]c2cc(C(F)(F)F)c(N3CCOCC3)cc2n(CP(=O)(O)O)c1=O	inactive
NC(=O)c1ccc(NC(=O)CN2CCN(Cc3ccccc3)CC2)cc1	inactive

As entered above.
In Potency, Cc1nnc(NC(=O)C2CCN(S(=O)(=O)c3ccc(Cl)cc3)CC2)s1 is entered as inactive
In Potency, O=c1[nH]c2cc(C(F)(F)F)c(N3CCOCC3)cc2n(CP(=O)(O)O)c1=O is entered as inactive
In Potency, COc1ccc(/C=C(\NC(=O)c2ccco2)C(=O)Nc2ccc(C(C)=O)cc2)cc1 is entered as inconclusive: 11.7 µM [inhibitor, partial curve, poor fit]
